Measurements taken from the supplement of paper PMC10382679.
Single values of this set are uncertain.

B1: Rpb7; numbered along this chain (parent)
chain: MFFIKDLSLNITLHPSFFGPRMKQYLKTKLLEEVEGSCTGKFGYILCVLDYDNIDIQRGRILPTDGSAEFNVKYRAVVFKPFKGEVVDGTVVSCSQHGFEVQVGPMKVFVTKHLMPQDLTFNAGSNPPSYQSSEDVITIKSRIRVKIEGCISQVSSIHAIGSIKEDYLGAI

How the values were obtained:
[1] = variants of: B1; experiment: log2 fold change of mutant abundance, UV-irradiated vs unirradiated; higher = more UV resistant (enriched after UV); conditions: with Saccharomyces cerevisiae rad7Δ rad26Δ; UV dose (J/m2): 10; genetic background: rad7Δ rad26Δ rpb7Δ + plasmid RPB7 library; outgrowth: 10 cell divisions
Procedure: (§1)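 Error-prone PCR random mutant library of yeast RPB7 (codons 2-171) on a LEU2 plasmid, shuffled into rad7Δ rad26Δ S. cerevisiae (BJ5465 background) with genomic RPB7 deleted. Cells were irradiated with 10 J/m2 UV (254 nm) or left unirradiated and grown for 10 divisions. Plasmid RPB7 amplicons were Illumina-sequenced and per-codon amino-acid counts were compared UV vs no UV with NOISeq (3 repeats, ARSyNseq batch correction). Positive log2FC means enrichment after UV, i.e. UV resistance / derepressed TCR.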

[2] = variants of: B1; experiment: NOISeq theta enrichment statistic, UV-irradiated vs unirradiated (dimensionless); higher = more UV resistant (enriched after UV); conditions: with Saccharomyces cerevisiae rad7Δ rad26Δ; UV dose (J/m2): 10; genetic background: rad7Δ rad26Δ rpb7Δ + plasmid RPB7 library; outgrowth: 10 cell divisions
Procedure: as §1

| Variant | log2 fold change of mutant abundance [1] | NOISeq theta enrichment statistic [2] |
| --- | --- | --- |
| Y74I | 0.203 | 0.284 |
| Y74C | 0.495 | 1.13 |
| Y74T | -0.00188 | -0.00152 |
| H113T | -0.0237 | -0.0329 |
| D135I | -1 | -0.525 |
| L119S | -0.233 | -0.424 |
| S156C | -0.00443 | -0.0047 |
| L7V | 0.0891 | 0.0916 |
| V87Q | 0.314 | 0.19 |
| V87F | -0.0137 | -0.0149 |
| V87R | 0.304 | 0.326 |
| V101A | 0.0925 | 0.289 |
| V101E | 0.119 | 0.709 |
| K140S | 0.491 | 0.431 |
| E148D | 0.236 | 0.599 |
| G59L | 0.184 | 0.125 |
| V91E | -0.229 | -0.238 |
| V91F | 0.0191 | 0.0623 |
| V91H | 0.133 | 0.0838 |
| I139M | -0.0411 | -0.1 |
| Q131R | 0.278 | 1.02 |
| K80G | -0.425 | -0.231 |
| N71L | -0.0977 | -0.0579 |

| Variant | log2 fold change of mutant abundance [1] | NOISeq theta enrichment statistic [2] |
| --- | --- | --- |
| G66A | 0.0591 | 0.0734 |
| G66S | 0.0643 | 0.0337 |
| G66C | 0.0759 | 0.0623 |
| K41T | 0.331 | 0.521 |
| M22A | 0.143 | 0.0585 |
| M22I | -0.157 | -0.477 |
| R21L | 0.186 | 0.535 |
| T120I | 0.0535 | 0.14 |
| T120D | -0.13 | -0.096 |
| T120H | 0.0979 | 0.0827 |
| V136F | -0.202 | -0.311 |
| V136L | -0.273 | -0.375 |
| T111M | 0.853 | 0.71 |
| T111K | 0.0147 | 0.111 |
| F17L | -0.402 | -2.28 |
| F17T | -1.12 | -0.459 |
| F17I | -0.588 | -1.15 |
| F17H | -0.604 | -0.229 |
| F17V | -0.22 | -0.321 |
| V34E | 0.441 | 0.295 |
| V34F | 0.136 | 0.261 |
| V34I | 0.0486 | 0.109 |
| C47H | 0.81 | 0.429 |

| Variant | log2 fold change of mutant abundance [1] | NOISeq theta enrichment statistic [2] |
| --- | --- | --- |
| C47L | -0.0474 | -0.0392 |
| R75N | -0.264 | -0.249 |
| R75M | -0.0245 | -0.0249 |
| G89V | -0.0578 | -0.154 |
| V110A | -0.0185 | -0.0431 |
| V110F | -0.0152 | -0.0124 |
| G161D | 0.106 | 0.155 |
| T64H | -0.174 | -0.0927 |
| G124R | 0.647 | 1.1 |
| P116L | -0.123 | -0.252 |
| P116H | -0.0476 | -0.322 |
| P116I | 0.105 | 0.0935 |
| D166A | -0.286 | -0.235 |
| Q24R | 0.0702 | 0.196 |
| G149V | 1.36 | 1.9 |
| G149C | 1.5 | 3.51 |
| N10R | -1.05 | -0.571 |
| N10D | -0.0154 | -0.0334 |
| K27I | 0.123 | 0.074 |
| C94G | -0.0856 | -0.361 |
| C94F | 0.00321 | 0.0158 |
| T138H | -0.0618 | -0.0534 |
| S37M | -0.184 | -0.0783 |

| Variant | log2 fold change of mutant abundance [1] | NOISeq theta enrichment statistic [2] |
| --- | --- | --- |
| H158S | 0.084 | 0.0568 |
| H158K | -0.376 | -0.185 |
| N126S | 0.027 | 0.0893 |
| S129T | -0.137 | -0.583 |
| S129E | 0.292 | 0.215 |
| S129A | -0.073 | -0.137 |
| G98K | 0.195 | 0.195 |
| G98L | 0.285 | 0.199 |
| L31I | -0.0584 | -0.05 |
| K164R | 0.0646 | 0.24 |
| K164G | -1.33 | -0.576 |
| V92N | 0.385 | 0.253 |
| V92R | 0.388 | 0.262 |
| S155R | -5.39e-05 | -0.000304 |
| S155D | -0.0242 | -0.0154 |
| K107Q | -0.0427 | -0.147 |
| K107A | 0.226 | 0.192 |
| A68G | 0.0879 | 0.121 |
| A68T | -0.00852 | -0.0323 |
| A123E | 0.126 | 0.878 |
| M106S | 0.0952 | 0.148 |
| I137Y | -0.131 | -0.0971 |
| I137D | 0.053 | 0.0306 |

| Variant | log2 fold change of mutant abundance [1] | NOISeq theta enrichment statistic [2] |
| --- | --- | --- |
| I137V | -0.141 | -0.463 |
| P105S | -0.00607 | -0.0159 |
| P105L | 0.537 | 1.01 |
| P105Q | 0.0171 | 0.1 |
| P105N | -0.406 | -0.304 |
| K23D | 0.811 | 0.366 |
| G104W | 0.0252 | 0.0195 |
| G104A | 0.15 | 0.253 |
| G43C | -0.155 | -0.111 |
| G43R | -0.117 | -0.212 |
| V77E | 0.0812 | 0.123 |
| F82C | 0.0707 | 0.18 |
| F82S | -0.138 | -0.474 |
| F82H | 0.579 | 0.406 |
| I151F | -0.531 | -0.913 |
| V86A | 0.0598 | 0.125 |
| V86Y | 0.0758 | 0.0548 |
| V86K | 0.0709 | 0.0566 |
| E100R | -0.00739 | -0.0131 |
| E100V | -0.279 | -1.48 |
| S133I | -0.92 | -0.443 |
| S133P | -0.079 | -0.306 |
| K5Y | 0.242 | 0.134 |

Retrieved one by one from above, seven records:

| Variant | log2 fold change of mutant abundance [1] | NOISeq theta enrichment statistic [2] |
| --- | --- | --- |
| V77E | 0.0812 | 0.123 |
| G43R | -0.117 | -0.212 |
| V86K | 0.0709 | 0.0566 |
| V86A | 0.0598 | 0.125 |
| G43C | -0.155 | -0.111 |
| F82S | -0.138 | -0.474 |
| F82C | 0.0707 | 0.18 |
